# Assay results from the supplement of paper PMC8728848.
# The other results are listed elsewhere or left out.
# B1: AT5G24760(45) (Arabidopsis thaliana), Q8LEB2 (protein)
# chain: MSASSSSFEQPQVITCNAAVAWRAGEPLVMEEVEVSPPQPLEIRIKVVCTSLCRSDLSAWESQSLLPRIFGHEAAGIVESIGEGVTEFEKGDHVLAVFTGECGSCRHCISGKSNMCQVLGMERKGLMHSDQKTRFSIKGKPVYHYCAVSSFSEYTVVHSGCAVKVDPLAPLHKICLLSCGVAAGLGAAWNVADVQKGSSVVIFGLGTVGLSVAQGAKLRGAAQILGVDINPAKAEQAKTFGVTDFINSNDLSEPIPQVIKRMTGGGADFSFECVGDTGIATTALQSCSDGWGMTVTLGVPKAKPEVSAHYGLFLSGKSLKGTLFGGWKPKSDLPSLIDKYMNKEIMIDEFITHNLSFDEINKAFVLMREGKCLRCVLHMPK
# Experiments:
# Assay in all cases: glycan array binding signal (z-score within array); higher = stronger binding
# Conditions in all cases: glycan notation: IUPAC condensed, linker removed
# [1] = molecular target: Fuc(a1-2)Gal
# Summary of the method: (§1)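 Arrays were curated from the Consortium for Functional Glycomics database, 3228 in total, and kept only where the protein sequence was available. Binding is expressed as a within-array Z-score. This score was averaged across arrays of the same protein sequence at different concentrations or buffers and across linkers, and negative values can be read as non-binding.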
# [2] = molecular target: Fuc(a1-2)Gal(b1-3)GalNAc
# Summary of the method: as §1
# [3] = molecular target: Fuc(a1-2)Gal(b1-3)GalNAc(a1-3)[Fuc(a1-2)]Gal(b1-4)Glc
# Summary of the method: as §1
# [4] = molecular target: Fuc(a1-2)Gal(b1-3)GalNAc(a1-3)[Fuc(a1-2)]Gal(b1-4)GlcNAc
# Summary of the method: as §1
# [5] = molecular target: Fuc(a1-2)Gal(b1-3)GalNAc(b1-3)Gal
# Summary of the method: as §1
# [6] = molecular target: Fuc(a1-2)Gal(b1-3)GalNAc(b1-3)Gal(a1-4)Gal(b1-4)Glc
# Summary of the method: as §1
# [7] = molecular target: Fuc(a1-2)Gal(b1-3)GalNAc(b1-4)[Neu5Ac(a2-3)]Gal(b1-4)Glc
# Summary of the method: as §1
# [8] = molecular target: Fuc(a1-2)Gal(b1-3)GlcNAc
# Summary of the method: as §1
# [9] = molecular target: Fuc(a1-2)Gal(b1-3)GlcNAc(b1-2)Man(a1-3)[Fuc(a1-2)Gal(b1-3)GlcNAc(b1-2)Man(a1-6)]Man(b1-4)GlcNAc(b1-4)GlcNAc
# Summary of the method: as §1
# [10] = molecular target: Fuc(a1-2)Gal(b1-3)GlcNAc(b1-2)Man(a1-3)[Fuc(a1-2)Gal(b1-3)GlcNAc(b1-2)Man(a1-6)]Man(b1-4)GlcNAc(b1-4)[Fuc(a1-6)]GlcNAc
# Summary of the method: as §1
# [11] = molecular target: Fuc(a1-2)Gal(b1-3)GlcNAc(b1-3)Gal(b1-4)Glc
# Summary of the method: as §1
# [12] = molecular target: Fuc(a1-2)Gal(b1-3)GlcNAc(b1-3)GalNAc
# Summary of the method: as §1
# [13] = molecular target: Fuc(a1-2)Gal(b1-3)GlcNAc(b1-3)[Fuc(a1-2)Gal(b1-3)GlcNAc(b1-6)]GalNAc
# Summary of the method: as §1
# [14] = molecular target: Fuc(a1-2)Gal(b1-3)GlcNAc(b1-3)[Gal(b1-4)GlcNAc(b1-6)]Gal(b1-4)Glc
# Summary of the method: as §1
# [15] = molecular target: Fuc(a1-2)Gal(b1-3)GlcNAc(b1-3)[Neu5Ac(a2-6)Gal(b1-4)GlcNAc(b1-6)]Gal(b1-4)Glc
# Summary of the method: as §1
# [16] = molecular target: Fuc(a1-2)Gal(b1-3)GlcNAc6S
# Summary of the method: as §1
# [17] = molecular target: Fuc(a1-2)Gal(b1-3)[Fuc(a1-4)]GlcNAc
# Summary of the method: as §1
# [18] = molecular target: Fuc(a1-2)Gal(b1-3)[Fuc(a1-4)]GlcNAc(b1-2)Man(a1-3)[Fuc(a1-2)Gal(b1-3)[Fuc(a1-4)]GlcNAc(b1-2)Man(a1-3)]Man(b1-4)GlcNAc(b1-4)GlcNAc
# Summary of the method: as §1
# [19] = molecular target: Fuc(a1-2)Gal(b1-3)[Fuc(a1-4)]GlcNAc(b1-2)Man(a1-3)[Fuc(a1-2)Gal(b1-3)[Fuc(a1-4)]GlcNAc(b1-2)Man(a1-6)]Man(b1-4)GlcNAc(b1-4)[Fuc(a1-6)]GlcNAc(b1-4)[Fuc(a1-6)]GlcNAc
# Summary of the method: as §1
# [20] = molecular target: Fuc(a1-2)Gal(b1-3)[Fuc(a1-4)]GlcNAc(b1-3)[Fuc(a1-3)[Gal(b1-4)]GlcNAc(b1-6)]Gal(b1-4)Glc
# Summary of the method: as §1
# [21] = molecular target: Fuc(a1-2)Gal(b1-3)[Fuc(a1-4)]GlcNAc(b1-3)[Gal(b1-4)GlcNAc(b1-6)]Gal(b1-4)Glc
# Summary of the method: as §1
# [22] = molecular target: Fuc(a1-2)Gal(b1-4)Fuc(a1-3)]GlcNAc(b1-2)Man(a1-3)[Fuc(a1-2)Gal(b1-4)[Fuc(a1-3)]GlcNAc(b1-2)Man(a1-6)]Man(b1-4)GlcNAc(b1-4)GlcNAc
# Summary of the method: as §1
# [23] = molecular target: Fuc(a1-2)Gal(b1-4)Glc
# Summary of the method: as §1
# [24] = molecular target: Fuc(a1-2)Gal(b1-4)Glc6S
# Summary of the method: as §1
# [25] = molecular target: Fuc(a1-2)Gal(b1-4)GlcNAc
# Summary of the method: as §1
# [26] = molecular target: Fuc(a1-2)Gal(b1-4)GlcNAc(b1-2)Man
# Summary of the method: as §1
# [27] = molecular target: Fuc(a1-2)Gal(b1-4)GlcNAc(b1-2)Man(a1-3)[Fuc(a1-2)Gal(b1-4)GlcNAc(b1-2)Man(a1-6)]Man(b1-4)GlcNAc(b1-4)GlcNAc
# Summary of the method: as §1
# [28] = molecular target: Fuc(a1-2)Gal(b1-4)GlcNAc(b1-2)Man(a1-3)[Fuc(a1-2)Gal(b1-4)GlcNAc(b1-2)Man(a1-6)]Man(b1-4)GlcNAc(b1-4)[Fuc(a1-6)]GlcNAc
# Summary of the method: as §1
# [29] = molecular target: Fuc(a1-2)Gal(b1-4)GlcNAc(b1-2)[Fuc(a1-2)Gal(b1-4)GlcNAc(b1-4)]Man(a1-3)[Fuc(a1-2)Gal(b1-4)GlcNAc(b1-2)Man(a1-6)]Man(b1-4)GlcNAc(b1-4)GlcNAc
# Summary of the method: as §1
# [30] = molecular target: Fuc(a1-2)Gal(b1-4)GlcNAc(b1-3)Gal(b1-4)GlcNAc
# Summary of the method: as §1
# [31] = molecular target: Fuc(a1-2)Gal(b1-4)GlcNAc(b1-3)Gal(b1-4)GlcNAc(b1-2)Man(a1-3)[Fuc(a1-2)Gal(b1-4)GlcNAc(b1-3)Gal(b1-4)GlcNAc(b1-2)Man(a1-6)]Man(b1-4)GlcNAc(b1-4)GlcNAc
# Summary of the method: as §1
# [32] = molecular target: Fuc(a1-2)Gal(b1-4)GlcNAc(b1-3)Gal(b1-4)GlcNAc(b1-3)Gal(b1-4)GlcNAc
# Summary of the method: as §1
# [33] = molecular target: Fuc(a1-2)Gal(b1-4)GlcNAc(b1-3)GalNAc
# Summary of the method: as §1
# [34] = molecular target: Fuc(a1-2)Gal(b1-4)GlcNAc(b1-3)[Fuc(a1-2)Gal(b1-4)GlcNAc(b1-6)]GalNAc
# Summary of the method: as §1
# [35] = molecular target: Fuc(a1-2)Gal(b1-4)GlcNAc(b1-3)[Fuc(a1-3)[Gal(b1-4)]GlcNAc(b1-6)]Gal(b1-4)Glc
# Summary of the method: as §1
# [36] = molecular target: Fuc(a1-2)Gal(b1-4)GlcNAc(b1-6)GalNAc
# Summary of the method: as §1
# [37] = molecular target: Fuc(a1-2)Gal(b1-4)GlcNAc6S
# Summary of the method: as §1
# [38] = molecular target: Fuc(a1-2)Gal(b1-4)[Fuc(a1-3)]GlcNAc
# Summary of the method: as §1
# [39] = molecular target: Fuc(a1-2)Gal(b1-4)[Fuc(a1-3)]GlcNAc(b1-2)Man(a1-3)[Fuc(a1-2)Gal(b1-4)[Fuc(a1-3)]GlcNAc(b1-2)Man(a1-6)]Man(b1-4)GlcNAc(b1-4)[Fuc(a1-6)]GlcNAc
# Summary of the method: as §1
# [40] = molecular target: Fuc(a1-2)Gal(b1-4)[Fuc(a1-3)]GlcNAc(b1-2)[Fuc(a1-2)Gal(b1-4)[Fuc(a1-3)]GlcNAc(b1-4)]Man(a1-3)[Fuc(a1-2)Gal(b1-4)[Fuc(a1-3)]GlcNAc(b1-2)Man(a1-6)]Man(b1-4)GlcNAc(b1-4)GlcNAc
# Summary of the method: as §1
# [41] = molecular target: Fuc(a1-2)Gal(b1-4)[Fuc(a1-3)]GlcNAc(b1-3)Gal(b1-4)[Fuc(a1-3)]GlcNAc
# Summary of the method: as §1
# [42] = molecular target: Fuc(a1-2)Gal(b1-4)[Fuc(a1-3)]GlcNAc(b1-3)Gal(b1-4)[Fuc(a1-3)]GlcNAc(b1-3)Gal(b1-4)[Fuc(a1-3)]GlcNAc
# Summary of the method: as §1
# [43] = molecular target: Fuc(a1-2)Gal(b1-4)[Fuc(a1-3)]GlcNAc(b1-3)GalNAc
# Summary of the method: as §1
# [44] = molecular target: Fuc(a1-2)Gal(b1-4)[Fuc(a1-3)]GlcNAc(b1-3)[Neu5Ac(a2-6)Gal(b1-4)GlcNAc(b1-6)]Gal(b1-4)Glc
# Summary of the method: as §1
# [45] = molecular target: Fuc(a1-2)Gal3S(b1-4)GlcNAc
# Summary of the method: as §1
binder,measurement,setting,value
B1,glycan array binding signal (z-score),[1],1.93
same,glycan array binding signal (z-score),[2],0.024
same,glycan array binding signal (z-score),[3],-0.218
same,glycan array binding signal (z-score),[4],-0.699
same,glycan array binding signal (z-score),[5],0.643
same,glycan array binding signal (z-score),[6],-0.051
same,glycan array binding signal (z-score),[7],-0.481
same,glycan array binding signal (z-score),[8],-0.229
same,glycan array binding signal (z-score),[9],0.206
same,glycan array binding signal (z-score),[10],0.853
same,glycan array binding signal (z-score),[11],-0.038
same,glycan array binding signal (z-score),[12],-0.071
same,glycan array binding signal (z-score),[13],-0.267
same,glycan array binding signal (z-score),[14],-0.238
same,glycan array binding signal (z-score),[15],-0.647
same,glycan array binding signal (z-score),[16],0.053
same,glycan array binding signal (z-score),[17],-0.915
same,glycan array binding signal (z-score),[18],1.53
same,glycan array binding signal (z-score),[19],-0.101
same,glycan array binding signal (z-score),[20],-0.903
same,glycan array binding signal (z-score),[21],-1.1
same,glycan array binding signal (z-score),[22],0.055
same,glycan array binding signal (z-score),[23],1.45
same,glycan array binding signal (z-score),[24],0.082
same,glycan array binding signal (z-score),[25],0.67
same,glycan array binding signal (z-score),[26],0.888
same,glycan array binding signal (z-score),[27],-0.974
same,glycan array binding signal (z-score),[28],-0.386
same,glycan array binding signal (z-score),[29],-0.052
same,glycan array binding signal (z-score),[30],-0.16
same,glycan array binding signal (z-score),[31],-1.37
same,glycan array binding signal (z-score),[32],-0.964
same,glycan array binding signal (z-score),[33],-0.198
same,glycan array binding signal (z-score),[34],-0.213
same,glycan array binding signal (z-score),[35],0.166
same,glycan array binding signal (z-score),[36],-0.75
same,glycan array binding signal (z-score),[37],-0.406
same,glycan array binding signal (z-score),[38],0.888
same,glycan array binding signal (z-score),[39],0.395
same,glycan array binding signal (z-score),[40],0.707
same,glycan array binding signal (z-score),[41],-0.531
same,glycan array binding signal (z-score),[42],-0.33
same,glycan array binding signal (z-score),[43],4.6
same,glycan array binding signal (z-score),[44],-0.581
same,glycan array binding signal (z-score),[45],-0.65

# Fetched one by one from the entries so far:
binder,measurement,setting,value
B1,glycan array binding signal (z-score),[22],0.055
same,glycan array binding signal (z-score),[20],-0.903
